Results: PubChem BioAssay AID504648 (National Center for Advancing Translational Sciences (NCATS), 2011)
The whole screen tested about 390,000 compounds, of which about 610 (0.16%) were called active. Inconclusive results, whose numbers are uncertain, are shown with a selection of clear calls. Calls come from the whole dose curve; as a rule, active = well fitted inhibition curve with a large enough effect; inconclusive = small, poorly fitted or top-dose-only effect, or effect the other way, or another doubt; inactive = no such curve, though single readings can be large or run the other way. A potency beside an inconclusive call is a rough fit, not a confirmed value.

Experiment: Nrf2 qHTS screen for inhibitors: counterscreen for cytotoxicity
Conditions: A549 ARE-Fluc cells, CellTiter-Fluor viability, 18-24 h; activity change, negative = cytotoxicity: at 46 µM (top of the series)
Method in brief: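 Cytotoxicity counterscreen: CellTiter-Fluor fluorescence was measured in A549 ARE_Fluc cells after 18-24 h of compound exposure in a concentration series. The subsequent BugLite luminescent read reports ARE-luciferase activity.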
% is set by controls: 0 for no effect and ±100 for the full control effect; potency is the fitted concentration of half-maximal effect.

SMILES	activity change, negative = cytotoxicity	Potency
Oc1c(C(c2ccccc2F)N2CCN(c3ccccc3F)CC2)sc2nc(-c3ccco3)nn12 (stereo unspecified)	inactive: 10.1%	–
CCN(CC)CCCN(C(=O)c1ccccc1F)c1nc(-c2ccc(OC)cc2)cs1	–	inconclusive: 23.1 µM [falling, partial curve, poor fit]
CCc1nnc(NC(=O)C2Cc3ccccc3CN2S(=O)(=O)c2c(C)c(C)cc(C)c2C)s1 (stereo unspecified)	–	inconclusive: 20.6 µM [falling, partial curve, poor fit]
CCn1c(=O)cc(C(=O)OC)sc1=Nc1ccc(F)c(F)c1	–	inconclusive: 16.4 µM [falling, partial curve]
Cc1ccc(O)c(/C=N/NC(=O)c2[nH]ncc2Br)c1	–	inconclusive: 3.26 µM [activator, full curve]
Cc1ccc2c(Cl)c(Cc3ccccc3)c(=S)[nH]c2n1	–	inconclusive: 29.1 µM [activator, single point]
COc1cc(S(=O)(=O)N(Cc2ccccc2)Cc2ccccn2)ccc1-n1cnnn1	–	inconclusive: 16.4 µM [activator, partial curve, poor fit]
COc1ccc(C)cc1NS(=O)(=O)c1ccc2c3c(cccc13)C(=O)N2	inconclusive: -59.6% [activator]	–
COc1cccc(-n2c(-c3ccccc3F)nc3c(cnn3-c3ccc(C)cc3)c2=O)c1	–	inconclusive: 1.64 µM [activator, full curve, poor fit]
S=C(NCCCc1cnc[nH]1)NCCCN(CCc1ccc(Cl)cc1)c1ccc(Br)cn1	inactive: 23.9%	–
Cc1ccc(N(C)S(=O)(=O)c2cccc(C(=O)Nc3ccc(N4CCOCC4)cc3)c2)cc1	inactive: 6.56%	–
COc1ccc(CNC(=O)CSc2ncc3c(n2)-c2cc(Cl)ccc2N(Cc2ccccc2)S3(=O)=O)cc1	–	inconclusive: 16.4 µM [activator, partial curve, poor fit]
O=C(Nc1cccc(C(F)(F)F)c1)N1CCC(c2nc(-c3ccc(F)cc3)no2)CC1	–	inconclusive: 18.4 µM [falling, single point]
CCOC(=O)c1cc(C)nc(S(C)(=O)=O)c1C#N	–	inconclusive: 29.1 µM [falling, single point]
CN(C)c1ccc2c(c1)OC(N)=C(C#N)C2c1cccc(F)c1 (stereo unspecified)	–	inconclusive: 32.6 µM [falling, single point]
COc1cccc(-n2nnnc2S(C)(=O)=O)c1	–	inconclusive: 23.1 µM [falling, single point]
O=S(=O)(c1ccc(NC(=S)NCCC(c2ccccc2)c2ccccc2)cc1)N1CCOCC1	–	inconclusive: 3.26 µM [falling, full curve, poor fit]
COc1cc2c(cc1OC)CN(C(=O)c1ccc(N3CCCC3)c([N+](=O)[O-])c1)CC2	–	inconclusive: 32.6 µM [falling, partial curve, poor fit]
O=C1C2=C(C(c3ccccc3)=NCCN2)C(c2cccc([N+](=O)[O-])c2)N1c1ccccc1 (stereo unspecified)	–	inconclusive: 23.1 µM [falling, single point]
O=C(NCCc1ccc(Cl)cc1)c1ccc2c(c1)N(Cc1ccc(F)cc1)C(=O)CS2	–	inconclusive: 29.1 µM [falling, partial curve, poor fit]
C[n+]1c(-c2ccccc2)cc2c(=Cc3ccc([N+](=O)[O-])cc3)c3ccccc3n21	–	inconclusive: 23.1 µM [falling, single point]
CC1(C)N=C(SCC(=O)Nc2ccc(Cl)cc2)C(c2ccc(Cl)cc2)=N1	–	inconclusive: 9.2 µM [falling, single point]

A stretch from the list above:
SMILES	activity change, negative = cytotoxicity	Potency
COc1cccc(-n2nnnc2S(C)(=O)=O)c1	–	inconclusive: 23.1 µM [falling, single point]
O=S(=O)(c1ccc(NC(=S)NCCC(c2ccccc2)c2ccccc2)cc1)N1CCOCC1	–	inconclusive: 3.26 µM [falling, full curve, poor fit]
COc1cc2c(cc1OC)CN(C(=O)c1ccc(N3CCCC3)c([N+](=O)[O-])c1)CC2	–	inconclusive: 32.6 µM [falling, partial curve, poor fit]

Carrying on.

SMILES	activity change, negative = cytotoxicity	Potency
CCCCN(Cc1cc2ccccc2[nH]c1=O)C(=O)c1cccc(Cl)c1	inactive: -14%	–
Cn1c(=O)c2c(nc(CN3CCN(c4ccccc4)CC3)n2Cc2c(F)cccc2Cl)n(C)c1=O	–	inconclusive: 5.17 µM [activator, single point]
CC(CCc1ccccn1)C(=O)C(C)CCc1ccccn1 (stereo unspecified)	inactive: 1.82%	–
C=CCN1C(C(=O)c2ccccc2)=C(OC(=O)COc2ccccc2)c2ccccc2S1(=O)=O	–	inconclusive: 20.6 µM [falling, single point]
CS(=O)(=O)c1cccc(-c2nnc(NC(=O)c3ccc4c(c3)OCCO4)o2)c1	inactive: 1.24%	–
O=C(Nc1ccc(/C=C/c2nc3ccccc3o2)cc1)c1cccc(C(F)(F)F)c1	–	inconclusive: 3.66 µM [falling, partial curve, poor fit]
Cc1cc(NC(=O)c2ccc3c(c2)OCO3)no1	inactive: -4.46%	–
Clc1ccc2c(N/N=C/c3ccccc3Br)ccnc2c1	–	inconclusive: 14.6 µM [falling, partial curve]
CC(=O)Oc1ccc(-n2c(=O)c3ccccc3c3ccccc3c2=O)cc1	–	inconclusive: 14.6 µM [activator, partial curve, poor fit]
CC(C)(C)CC(=O)NC(=S)NCc1ccco1	–	inconclusive: 18.4 µM [activator, partial curve, poor fit]
CCN1/C(=C/c2sc(-c3ccccc3C)c[n+]2C)Sc2ccccc21	–	inconclusive: 2.31 µM [falling, partial curve]
COc1ccc2nc(NC(=O)c3cccc(OCc4c(C)noc4C)c3)sc2c1	–	inconclusive: 5.17 µM [falling, partial curve, poor fit]
Cc1ccc(COc2ccc(/C=N/O)cc2)cc1	inactive: 2.86%	–
O=[N+]([O-])c1ccc(-n2nnnc2-c2ccccc2)c([N+](=O)[O-])c1	inactive: -14.4%	–
COCCCNC(=O)Cn1c(=O)n(-c2ccc(Cl)cc2)c(=O)c2c3c(sc21)CCCCC3	inactive: -2.8%	–
COc1ccc(CCNC(=O)CN2C(=O)COc3ccc(S(=O)(=O)N4CCCCCC4)cc32)cc1OC	–	inconclusive: 18.4 µM [falling, partial curve, poor fit]
Cc1c(C(=O)N2CCN(C)CC2)oc2ccc(Br)cc12	–	inconclusive: 29.1 µM [activator, partial curve, poor fit]
O=C(Nc1cc([N+](=O)[O-])ccc1O)NC1CCS(=O)(=O)C1 (stereo unspecified)	–	inconclusive: 16.4 µM [falling, single point]
Cc1nnsc1C(=O)Nc1ccc(S(=O)(=O)N2CCC(C)CC2)cc1	inactive: -14.7%	–
CCc1nc(SCC(=O)Nc2nccs2)c2oc3ccccc3c2n1	–	inconclusive: 29.1 µM [activator, partial curve, poor fit]
Cc1cc2c(c(/C=C/C(=O)c3ccccc3)c1)OC1(C=C2)Oc2ccccc2C(=O)N1C (stereo unspecified)	–	inconclusive: 20.6 µM [falling, single point]
O=C(c1cccc([N+](=O)[O-])c1)N1CCN(c2n[nH]c(=O)[nH]c2=O)CC1	inactive: -4.7%	–

SMILES	activity change, negative = cytotoxicity	Potency
CCc1nnc2n1N(C(C)=O)C(c1ccc(C(C)(C)C)cc1)=C(C(C)=O)S2	–	inconclusive: 29.1 µM [falling, partial curve, poor fit]
CCC(=O)Nc1ccccc1C(=O)OC(c1ccccc1)c1ccccc1	–	inconclusive: 11.6 µM [activator, partial curve, poor fit]
Cc1nn(-c2ccccc2)c(C)c1NC(=O)COc1ccc2ccccc2c1	–	inconclusive: 18.4 µM [falling, single point]
CC(=O)c1ccc(NC(=O)CN2C(=O)CCc3cc(S(=O)(=O)N4CCC(C)CC4)ccc32)cc1	inactive: -4.05%	–
CN(c1ccccc1)S(=O)(=O)c1cc(C(=O)N2CCN(c3ccccn3)CC2)ccc1Cl	inactive: -9.73%	–
Cc1ccnc(NC(=O)c2cc3ccccc3o2)c1	inactive: 1.42%	–
Cc1ccc(C2N(c3ccccc3)C(=S)N3CCCN23)cc1 (stereo unspecified)	inactive: -3.48%	–
CCOc1ccccc1C(=O)Nc1cc2c(cc1N1CCCCC1)n(C)c(=O)n2C	–	inconclusive: 16.4 µM [falling, partial curve, poor fit]
CCC(O)c1nc2ccccc2n1CCOc1cc(C)cc(C)c1 (stereo unspecified)	inactive: -15.6%	–
COC(=O)Cn1cnc2c(nnn2-c2cccc(OC)c2)c1=O	inactive: 1.34%	–
CC(=O)O[C@]1(C(C)=O)CC[C@H]2[C@@H]3C=C(C)C4=CC(=O)CC[C@@H]4[C@H]3CC[C@@]21C	inactive: 1.42%	–
CN(C)CC(CCCCC(CN(C)C)C(=O)c1ccccc1)C(=O)c1ccccc1 (stereo unspecified)	–	inconclusive: 29.1 µM [falling, single point]
COc1cccc(NC(=O)CSc2ccc(-c3sc(C)nc3C)nn2)c1	inactive: -12.6%	–
COc1ccc(-n2nc(C(=O)NCC(=O)NC3CCCC(C)C3C)c3ccccc3c2=O)cc1 (stereo unspecified)	–	inconclusive: 20.6 µM [falling, partial curve, poor fit]
O=C1CN(C(=O)COc2ccccc2)C(c2ccc(F)cc2)c2cc(Br)ccc2N1 (stereo unspecified)	–	inconclusive: 20.6 µM [falling, single point]
O=C(Nc1cc2c3c(c1)CC(=O)N3CCC2)c1ccccc1Br	–	inconclusive: 25.9 µM [falling, partial curve, poor fit]
COc1ccccc1NC(=O)c1ccc(C(=O)c2ccccc2)o1	inactive: 2.28%	–
Cc1ccccc1CN1C(=O)c2ccccc2Sc2ccc(C(=O)NCc3ccccc3)cc21	inactive: 11.5%	–
COc1ccc(C(=O)N2C(=S)NC(=O)/C2=C\c2ccc(C)cc2)cc1	–	inconclusive: 20.6 µM [falling, single point]
CCCOC(=O)C1=C(C)NC2=C(C(=O)CCC2)C1c1ccc(N(C)C)cc1 (stereo unspecified)	–	inconclusive: 25.9 µM [falling, partial curve, poor fit]
Cc1ccc(C(=O)O/N=C(\N)Cc2ccc([N+](=O)[O-])cc2)c(Cl)c1	–	inconclusive: 29.1 µM [falling, single point]
CC1(C)CC(=O)C2=C(C1)NC(Nc1nc3ccccc3o1)=NC2c1cccc(O)c1 (stereo unspecified)	–	inconclusive: 23.1 µM [falling, partial curve, poor fit]
